Test results from paper PMC3618364.
No constants are given. Whether binding was seen depends on the method and setting. A result given as binding can be weak or reduced; the word gives no strength.

Chains of the proteins cited; added tags and fusions are not shown. Lines headed by an entry give the natural chain unless they say otherwise; changes in a name come on top.
UniProt P32828: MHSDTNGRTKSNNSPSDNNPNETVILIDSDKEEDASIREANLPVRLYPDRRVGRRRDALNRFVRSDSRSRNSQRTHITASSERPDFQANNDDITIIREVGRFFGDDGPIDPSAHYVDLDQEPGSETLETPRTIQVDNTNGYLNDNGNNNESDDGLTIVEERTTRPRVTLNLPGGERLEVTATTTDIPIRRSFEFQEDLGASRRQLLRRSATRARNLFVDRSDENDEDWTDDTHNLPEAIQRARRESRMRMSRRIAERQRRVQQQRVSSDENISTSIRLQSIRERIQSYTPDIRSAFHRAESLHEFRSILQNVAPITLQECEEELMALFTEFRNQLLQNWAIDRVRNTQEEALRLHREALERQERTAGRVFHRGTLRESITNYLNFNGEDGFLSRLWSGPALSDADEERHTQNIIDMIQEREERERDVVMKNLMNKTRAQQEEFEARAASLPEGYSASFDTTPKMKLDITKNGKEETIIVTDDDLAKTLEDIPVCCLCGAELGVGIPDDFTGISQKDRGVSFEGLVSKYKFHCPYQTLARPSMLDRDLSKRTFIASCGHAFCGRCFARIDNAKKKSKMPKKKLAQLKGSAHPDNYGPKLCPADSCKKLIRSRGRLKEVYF
UniProt Q08562: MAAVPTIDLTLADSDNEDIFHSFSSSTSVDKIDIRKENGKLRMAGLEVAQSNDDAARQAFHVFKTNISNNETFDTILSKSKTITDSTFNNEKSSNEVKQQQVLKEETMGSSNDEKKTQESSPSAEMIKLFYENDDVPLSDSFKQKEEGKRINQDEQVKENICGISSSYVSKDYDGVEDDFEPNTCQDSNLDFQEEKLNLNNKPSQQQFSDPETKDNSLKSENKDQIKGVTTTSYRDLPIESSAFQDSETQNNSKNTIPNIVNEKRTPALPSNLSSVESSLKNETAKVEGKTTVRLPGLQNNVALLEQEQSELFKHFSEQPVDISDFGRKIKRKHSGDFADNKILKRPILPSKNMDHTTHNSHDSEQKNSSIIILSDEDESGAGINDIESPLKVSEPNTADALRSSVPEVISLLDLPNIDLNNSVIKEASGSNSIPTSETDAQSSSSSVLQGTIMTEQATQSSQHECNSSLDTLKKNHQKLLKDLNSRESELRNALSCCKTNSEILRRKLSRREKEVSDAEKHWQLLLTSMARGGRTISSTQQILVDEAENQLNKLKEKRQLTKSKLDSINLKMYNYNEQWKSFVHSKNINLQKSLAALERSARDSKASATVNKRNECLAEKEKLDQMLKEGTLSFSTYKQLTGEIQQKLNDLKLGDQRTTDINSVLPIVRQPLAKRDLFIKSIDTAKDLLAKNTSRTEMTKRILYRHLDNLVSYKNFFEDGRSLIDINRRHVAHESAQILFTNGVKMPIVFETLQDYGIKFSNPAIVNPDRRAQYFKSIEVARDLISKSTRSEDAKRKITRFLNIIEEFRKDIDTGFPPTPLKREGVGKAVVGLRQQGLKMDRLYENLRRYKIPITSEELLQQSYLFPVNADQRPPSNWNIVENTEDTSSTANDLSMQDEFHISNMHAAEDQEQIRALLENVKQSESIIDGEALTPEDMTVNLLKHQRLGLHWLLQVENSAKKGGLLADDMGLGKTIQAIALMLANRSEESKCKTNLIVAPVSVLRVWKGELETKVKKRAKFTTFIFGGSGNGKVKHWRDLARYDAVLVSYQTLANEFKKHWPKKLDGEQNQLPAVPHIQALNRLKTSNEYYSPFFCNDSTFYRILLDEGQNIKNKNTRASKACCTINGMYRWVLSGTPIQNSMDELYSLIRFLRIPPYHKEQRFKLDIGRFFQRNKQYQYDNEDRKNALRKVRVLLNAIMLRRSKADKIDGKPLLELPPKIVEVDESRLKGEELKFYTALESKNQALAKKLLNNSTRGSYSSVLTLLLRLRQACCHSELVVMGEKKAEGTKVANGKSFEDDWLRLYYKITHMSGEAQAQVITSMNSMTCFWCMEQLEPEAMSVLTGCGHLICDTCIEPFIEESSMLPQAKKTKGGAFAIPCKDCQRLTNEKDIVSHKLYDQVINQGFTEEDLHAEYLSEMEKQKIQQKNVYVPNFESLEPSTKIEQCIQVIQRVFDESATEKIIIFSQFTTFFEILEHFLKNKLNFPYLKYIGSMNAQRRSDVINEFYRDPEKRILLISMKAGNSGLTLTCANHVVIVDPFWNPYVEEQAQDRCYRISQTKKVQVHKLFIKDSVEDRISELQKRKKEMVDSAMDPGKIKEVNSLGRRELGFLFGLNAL

Biological target: Slx5 with mutations of the SIMs (S. cerevisiae) (UniProt P32828)
Experiment: two-hybrid; Gal4AD and Gal4BD fusions (pGADT7, pGBKT7) in reporter strain PJ69-4A; His (10 mM 3AT) and Ade reporter phenotypes on plates

binding: binds
Substance: Gal4AD-Uls1 (1-1619) (from UniProt Q08562 1-1619)
